Source: patent US20160185797A1, “ALKYNYL ALCOHOLS AND METHODS OF USE” (Genentech, Inc., priority 2013, published 2016)
The match of structure and compound is tentative.

Amino acid sequences for entries named in this document (tags omitted).
UniProt Q99558, whole entry: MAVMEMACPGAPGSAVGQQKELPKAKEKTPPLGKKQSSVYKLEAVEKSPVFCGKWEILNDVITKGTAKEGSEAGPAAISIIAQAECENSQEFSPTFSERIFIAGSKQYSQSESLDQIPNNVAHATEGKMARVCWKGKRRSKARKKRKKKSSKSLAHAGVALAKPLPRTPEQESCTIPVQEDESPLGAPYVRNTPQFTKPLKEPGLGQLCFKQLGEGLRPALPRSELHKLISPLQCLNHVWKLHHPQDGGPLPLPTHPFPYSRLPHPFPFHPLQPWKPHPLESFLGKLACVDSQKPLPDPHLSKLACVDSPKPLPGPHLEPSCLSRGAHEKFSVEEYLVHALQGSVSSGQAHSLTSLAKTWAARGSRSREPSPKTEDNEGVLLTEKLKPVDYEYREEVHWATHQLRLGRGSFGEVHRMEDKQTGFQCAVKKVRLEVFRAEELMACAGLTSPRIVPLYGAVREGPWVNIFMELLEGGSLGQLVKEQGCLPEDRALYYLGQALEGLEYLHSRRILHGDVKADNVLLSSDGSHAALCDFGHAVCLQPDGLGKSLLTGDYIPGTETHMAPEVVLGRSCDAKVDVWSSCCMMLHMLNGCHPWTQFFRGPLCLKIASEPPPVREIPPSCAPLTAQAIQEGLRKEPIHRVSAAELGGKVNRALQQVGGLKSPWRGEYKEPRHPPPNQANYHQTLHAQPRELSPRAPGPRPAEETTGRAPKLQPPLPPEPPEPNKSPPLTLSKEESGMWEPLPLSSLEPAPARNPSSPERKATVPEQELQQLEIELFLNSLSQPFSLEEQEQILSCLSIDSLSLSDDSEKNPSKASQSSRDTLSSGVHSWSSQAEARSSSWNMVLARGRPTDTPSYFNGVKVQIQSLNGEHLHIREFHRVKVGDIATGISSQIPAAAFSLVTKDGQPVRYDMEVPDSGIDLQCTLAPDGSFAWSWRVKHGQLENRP

Key:
[1] = biological target: nuclear factor-kappa B (NF-kB)-inducing kinase (NIK) (Homo sapiens, UniProt Q99558); test: NIK enzyme inhibition assay (Transcreener ADP fluorescence polarization, NIK ADP-FP); assay type: biochemical; conditions: read-out: NIK ADP-FP (Ki μM); purified NIK 0.5 nM, 10 μM ATP, pH 7.2; Ki from Morrison's quadratic equation
[2] = system: p52 (NF-kB2) nuclear translocation in HeLa cells; test: p52 (NF-kB2) nuclear translocation assay in HeLa cells, anti-lymphotoxin beta receptor antibody stimulated (non-classical NF-kB signaling), high content imaging; conditions: read-out: p52 HeLa Transloc Assay (IC50), 100 ng/mL anti-lymphotoxin beta receptor antibody for 5 hours
[3] = system: REL-A (p65) nuclear translocation in HeLa cells; test: REL-A (p65) nuclear translocation assay in HeLa cells, TNF-α stimulated (classical NF-kB signaling), high content imaging; assay type: cell-based; conditions: read-out: REL-A HeLa Transloc Assay (IC50), compound 4.5 h, then 10 ng/mL TNF-α for 30 minutes
Protocol: Several assays were developed to profile the cellular activities of NIK inhibitors.
(2) A second set of cell assay are used to define the selectivity of NIK inhibitors toward inhibition of classical vs. non-classical NF-kB signaling and rely on quantification of the nuclear translocation of p52 (NF-kB2) and REL-A (p65) using high content cellular imaging. For the p52 (non-classical NF-kB signaling) nuclear translocation assay, HeLa cells are treated with different concentrations of compounds (0.2% DMSO final) in medium containing 10% fetal bovine serum and then stimulated with 100 ng/mL of an anti-lymphotoxin beta receptor antibody (R&D Systems) for 5 hours. In the REL-A nuclear translocation assay, HeLa cells are incubated with compounds (0.2% DMSO final) for 4.5 hours in medium containing 10% fetal bovine serum before stimulating them with 10 ng/mL tumor necrosis factor (TNF)-α (R&D Systems) for 30 minutes. […] Imaging is carried out using an Opera reader (Perkin Elmer) and data are analyzed with the aid of Acapella software (Perkin Elmer). The p52 or REL-Atranslocation into the nucleus is quantified by the ratio of the nuclear to cytoplasmic signal intensity. […]

CN1CC[C@@](O)(C#Cc2cccc(-c3nc(C(N)=O)cc4cccnc34)c2)C1=O
Ki [1]: 0.0031 µM
IC50 [2]: 837 nM
IC50 [3]: ≥ 20 µM
